Here are results for 40 compounds from PubChem BioAssay AID445 (National Center for Advancing Translational Sciences (NCATS), 2006).

By AC50 is commonly meant the concentration giving half of the maximal activity seen.

Structures are written as SMILES. This is one part of the list. Shown are side measurements of this screen, not its main read-out; they come without a call. The list favours compounds with an active or inconclusive main result. The note in brackets gives the kind of curve behind each potency; many fits are weak.

The assay is described as follows: IkB Signaling. To be noted: ABC-DLBCL IkBa-CBG/CBR dual luciferase ratio (green luciferase fused to IkBa over red control in OCI-Ly3 lymphoma cells), 4 h. The procedure, abridged: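 In this assay, an IκBα–CBG68 fusion accumulates when IKK-driven degradation is blocked; native CBR normalizes for cell number. OCI-Ly3 cells were treated 4 h with compound and doxycycline, then green and red light read after Chroma-Glo addition.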
Where [1] appears, read: measured here: control luc red channel unless noted.

`CC(C)(C)C(=O)Nc1ccc2nc(SCC(=O)N3CCc4ccccc43)sc2c1`: the half-maximal activity concentration (AC50) under setting [1] is 10 µM [falling, partial curve].

As to `O=C(CSc1nnnn1C1CCCCC1)Nc1nc2c(s1)CCCC2`, the AC50 under setting [1] was 25.1 µM [falling, single point].

As to `CS(=O)(=O)Cc1nc2ccccc2oc1=O`, the AC50 under setting [1] was 12.6 µM [falling, partial curve].

With `Cc1ccc(CN2C(=O)N(c3ccccc3)C(=O)C2CC(=O)Nc2ccccc2)cc1` (stereo unspecified), the AC50 under setting [1] is 39.8 µM [falling, single point].

As for `COc1ccc(CC(=O)Nc2nc3ccccc3s2)cc1S(=O)(=O)N1CCOCC1`, the AC50 under setting [1] was 15.8 µM [falling, partial curve].

For the compound `CCCOc1ccc(C(=O)CCN2CCCCC2)cc1`, the half-maximal activity concentration (AC50) under setting [1] was 12.6 µM [falling, partial curve].

On to `CCn1c(C(=O)N2CCC(C(=O)N3CCN(c4ccccn4)CC3)CC2)cc2sccc21`, for which the AC50 under setting [1] is 15.8 µM [falling, partial curve].

As for `CCc1cccc(C)c1NC(=O)Cn1cc2c(n1)CCCCC2`, under setting [1], the AC50 was 15.8 µM [falling, partial curve].

On to `Cc1nn(Cc2ccccc2)c2c1C(c1ccco1)C(C#N)=C(N)O2` (stereo unspecified), for which the AC50 (measured here: IkB-luc green channel) is 31.6 µM [rising, single point] and the AC50 (measured here: control luc red channel) was 25.1 µM [rising, single point].

`COC(=O)c1ccccc1NC(=O)c1cnc2sc(N3CCOCC3)nn2c1=O`: the AC50 under setting [1] was 15.8 µM [falling, partial curve].

For the compound `Cc1cccc(NC(=O)COc2nsnc2N2CCOCC2)c1`, the AC50 under setting [1] was 0.501 µM [falling, full curve, poor fit].

`CCN1C(=O)c2ccccc2S(=O)c2ccc(C(=O)N3CCN(c4ccccc4OC)CC3)cc21` (stereo unspecified): the AC50 under setting [1] was 25.1 µM [falling, single point].

Take `COc1cccc(CNC(=O)CCCCCn2c(=O)[nH]c3cc(OC)c(OC)cc3c2=O)c1`: under setting [1], the AC50 is 15.8 µM [falling, single point].

As for `CN(Cc1ccccc1)C(=O)c1cc(-c2cccc(Cl)c2)on1`, the AC50 under setting [1] is 31.6 µM [falling, single point].

On to `CS(=O)(=O)N(CCc1ccccc1)CC(=O)N1CCN(Cc2ccc3c(c2)OCO3)CC1`, for which the AC50 under setting [1] is 12.6 µM [falling, partial curve].

`COc1cc(C(CC(=O)Nc2cc(C)ccn2)N2Cc3ccccc3C2=O)cc(OC)c1OC` (stereo unspecified): the AC50 under setting [1] is 0.0398 µM [rising, full curve].

As to `COc1ccc2c(c1)c1c(c(=O)n(-c3cccc(C)c3)c(=O)n1CC(=O)NCC1CCCO1)n2C` (stereo unspecified), under setting [1], the AC50 is 0.1 µM [rising, full curve].

In the case of `Cc1cccc(Cc2c(C)nc3nc(SCc4ccccc4F)nn3c2C)c1`, the AC50 under setting [1] is 12.6 µM [falling, partial curve].

Turning to `CCOc1ccccc1C(=O)Nc1ccc(S(=O)(=O)Nc2ncccn2)cc1`, under setting [1], the concentration at half-maximal activity (AC50) is 12.6 µM [rising, partial curve, poor fit].

`COc1ccc(-c2noc(CCC(=O)Nc3cc(OC)ccc3OC)n2)cc1`: the AC50 under setting [1] was 15.8 µM [falling, partial curve].

In the case of `CCCCn1c(N2CCC(Cc3ccccc3)CC2)nc2c1c(=O)[nH]c(=O)n2C`, the AC50 under setting [1] was 20 µM [falling, partial curve].

For `O=c1/c(=C/c2ccccn2)sc2nc3ccccc3n12`, the AC50 under setting [1] was 0.0316 µM [falling, full curve, poor fit].

For `CCCc1nc(SCC(=O)N2CCC(Cc3ccccc3)CC2)c2c(=O)n(C)c(=O)n(C)c2n1`, the AC50 under setting [1] is 2.51 µM [falling, full curve].

For `CC(C)c1cc(-c2nc(-c3ccc(Br)cc3)no2)n[nH]1`, under setting [1], the AC50 was 25.1 µM [falling, single point].

For `COc1ccc2[nH]c(=O)c(CN(C(=O)c3cccc(Cl)c3)c3cccc(C)c3)cc2c1`, under setting [1], the AC50 is 10 µM [falling, partial curve, poor fit].

As for `CCc1ccc(NC(=O)Cn2cnc3nc4c(cc3c2=O)CCCC4)cc1`, under setting [1], the AC50 was 1 µM [falling, full curve, poor fit].

In the case of `CCOC(=O)c1cc2c(=O)n3ccccc3nc2n(CC(C)C)c1=NC(=O)C(C)(C)Oc1ccc(Cl)cc1`, under setting [1], the AC50 is 0.0794 µM [falling, single point].

As for `Cc1ccc(C(=O)N2CC(=O)Nc3ccc(Br)cc3C2c2ccc(F)cc2)cc1C` (stereo unspecified), under setting [1], the AC50 was 15.8 µM [falling, partial curve].

Regarding `CC1CN(C(c2cccs2)c2sc3ncnn3c2O)CC(C)O1` (stereo unspecified), the AC50 under setting [1] is 12.6 µM [rising, partial curve].

Take `CC(C)CCNC(=O)c1c[nH]c2ccc(S(=O)(=O)Nc3cccc(C(F)(F)F)c3)cc2c1=O`: the AC50 under setting [1] was 12.6 µM [falling, partial curve].

Take `CCOc1ccc2cc(C#N)c(SCC(=O)N3CCC(C)CC3)nc2c1`: the AC50 under setting [1] is 25.1 µM [falling, partial curve].

Turning to `COc1ccc(C(CNC(=O)c2oc3ccccc3c2C)N2CCCCC2)cc1` (stereo unspecified), the concentration at half-maximal activity (AC50) under setting [1] is 39.8 µM [falling, single point].

Regarding `CN1CCN(c2ncnc3ccc(-c4cccc(NS(C)(=O)=O)c4)cc23)CC1`, the AC50 under setting [1] was 2.51 µM [rising, partial curve].

Take `CCc1c(C)sc2c1CCN(C(=O)Nc1ccccc1Cl)C2c1ccc(OC)cc1` (stereo unspecified): the AC50 under setting [1] was 7.94 µM [falling, full curve, poor fit].

On to `Cc1cc(-n2c(SCc3ccccc3F)nc3[nH]ncc3c2=O)ccc1Cl`, for which the AC50 under setting [1] was 39.8 µM [falling, single point].

With `COc1ccc(-c2csc(NC(C)=O)n2)cc1OC`, the AC50 under setting [1] was 6.31 µM [rising, single point] [measured here: IkB-luc green channel].

Take `CS(=O)(=O)c1ncc(N(Cc2ccco2)Cc2cccs2)c(C(=O)Nc2ccccc2F)n1`: the AC50 under setting [1] is 3.16 µM [falling, partial curve].

As for `CC1CCc2onc(C(=O)N3CCN(c4ccc(Cl)cc4)CC3)c2C1` (stereo unspecified), the AC50 under setting [1] is 7.94 µM [falling, partial curve].

`O=C(CCCCCNc1nc(=S)[nH]c2ccccc12)N1CCN(c2ccccn2)CC1`: the AC50 under setting [1] was 31.6 µM [falling, partial curve].

For `Cc1ccc(NC(=O)CCc2nc(-c3ccccc3F)no2)c(C)c1`, under setting [1], the AC50 was 0.0794 µM [falling, full curve, poor fit].
